{"source": "PubChem BioAssay AID1224830 (NIAID, 2016)", "assay": "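Regulators of TLR4 signalling towards TNF-alpha in macrophage-like cells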 (primary screen)", "cell system": "human THP-1 monocytic leukaemia cells, TNF dual-luciferase reporter clone, PMA-differentiated to macrophage-like cells", "knock-down reagent": "siRNA pool against human genes, 50 nM", "timing": "LPS for 4 h, given about 3 days after siRNA transfection", "conditions": "bacterial LPS (TLR4 ligand), 10 ng/ml", "detection": "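TNF firefly reporter luminescence divided by renilla, normalised to the plate median, then turned into a robust z-score for each replicate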", "direction": "TNF reporter robust z-score: higher = stronger TNF reporter response to LPS", "active means": "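a well is active when its z-score exceeds 2.8 or falls below -1.5; control wells carry no call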", "note": "This is one part, drawn at random, of about 18,000 reagents. Of all reagents, about 2,900 (16%) are marked active. 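Calls are made per well; low scores hint the gene aids the LPS response, high scores that it dampens it.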 A number with no mark means an inactive call. Repeated entries: four replicate wells of each siRNA pool. Reagent sequences are not shown."}
{"Gene": "ITPRIP (GeneID 85450)", "TNF reporter robust z-score": 1.42}
{"Gene": "ITPRIP (GeneID 85450)", "TNF reporter robust z-score": 1.78}
{"Gene": "ITPRIP (GeneID 85450)", "TNF reporter robust z-score": 2.04}
{"Gene": "ITPRIP (GeneID 85450)", "TNF reporter robust z-score": 0.75}
{"Gene": "DIPK2B (GeneID 79742)", "TNF reporter robust z-score": 0.62}
{"Gene": "DIPK2B (GeneID 79742)", "TNF reporter robust z-score": -0.75}
{"Gene": "DIPK2B (GeneID 79742)", "TNF reporter robust z-score": -0.09}
{"Gene": "DIPK2B (GeneID 79742)", "TNF reporter robust z-score": 1.29}
{"Gene": "CD74 (GeneID 972)", "TNF reporter robust z-score": "-1.92 (active)"}
{"Gene": "CD74 (GeneID 972)", "TNF reporter robust z-score": -0.44}
{"Gene": "CD74 (GeneID 972)", "TNF reporter robust z-score": 1.41}
{"Gene": "CD74 (GeneID 972)", "TNF reporter robust z-score": -0.02}
{"Gene": "FAM27E5 (GeneID 284123)", "TNF reporter robust z-score": 0.4}
{"Gene": "FAM27E5 (GeneID 284123)", "TNF reporter robust z-score": 0.5}
{"Gene": "FAM27E5 (GeneID 284123)", "TNF reporter robust z-score": 1.17}
{"Gene": "FAM27E5 (GeneID 284123)", "TNF reporter robust z-score": -0.16}
{"Gene": "PPP1R16B (GeneID 26051)", "TNF reporter robust z-score": -0.74}
{"Gene": "PPP1R16B (GeneID 26051)", "TNF reporter robust z-score": -0.3}
{"Gene": "PPP1R16B (GeneID 26051)", "TNF reporter robust z-score": 0.26}
{"Gene": "PPP1R16B (GeneID 26051)", "TNF reporter robust z-score": -0.08}

Continued; the last 2 above are carried over.
{"Gene": "PPP1R16B (GeneID 26051)", "TNF reporter robust z-score": 0.26}
{"Gene": "PPP1R16B (GeneID 26051)", "TNF reporter robust z-score": -0.08}
{"Gene": "CST4 (GeneID 1472)", "TNF reporter robust z-score": -0.01}
{"Gene": "CST4 (GeneID 1472)", "TNF reporter robust z-score": 0.62}
{"Gene": "CST4 (GeneID 1472)", "TNF reporter robust z-score": -0.51}
{"Gene": "CST4 (GeneID 1472)", "TNF reporter robust z-score": -0.37}
{"Gene": "METTL2A (GeneID 339175)", "TNF reporter robust z-score": -0.87}
{"Gene": "METTL2A (GeneID 339175)", "TNF reporter robust z-score": -0.4}
{"Gene": "METTL2A (GeneID 339175)", "TNF reporter robust z-score": -0.97}
{"Gene": "METTL2A (GeneID 339175)", "TNF reporter robust z-score": 0.83}
{"Gene": "RAB20 (GeneID 55647)", "TNF reporter robust z-score": 0.9}
{"Gene": "RAB20 (GeneID 55647)", "TNF reporter robust z-score": -0.21}
{"Gene": "RAB20 (GeneID 55647)", "TNF reporter robust z-score": 0.01}
{"Gene": "SLC45A2 (GeneID 51151)", "TNF reporter robust z-score": 0.03}
{"Gene": "SLC45A2 (GeneID 51151)", "TNF reporter robust z-score": 0.72}
{"Gene": "SLC45A2 (GeneID 51151)", "TNF reporter robust z-score": 2.09}
{"Gene": "SLC45A2 (GeneID 51151)", "TNF reporter robust z-score": 1.61}
{"Gene": "CFB (GeneID 629)", "TNF reporter robust z-score": 0.3}
{"Gene": "CFB (GeneID 629)", "TNF reporter robust z-score": 1.16}
{"Gene": "CFB (GeneID 629)", "TNF reporter robust z-score": -0.82}
{"Gene": "CFB (GeneID 629)", "TNF reporter robust z-score": -1.03}
{"Gene": "CHGB (GeneID 1114)", "TNF reporter robust z-score": 0.19}
{"Gene": "CHGB (GeneID 1114)", "TNF reporter robust z-score": 1.65}
{"Gene": "CHGB (GeneID 1114)", "TNF reporter robust z-score": 0.35}
{"Gene": "CHGB (GeneID 1114)", "TNF reporter robust z-score": 0.95}
{"Gene": "GLDN (GeneID 342035)", "TNF reporter robust z-score": -0.55}
{"Gene": "GLDN (GeneID 342035)", "TNF reporter robust z-score": -1.02}
{"Gene": "GLDN (GeneID 342035)", "TNF reporter robust z-score": -0.61}
{"Gene": "GLDN (GeneID 342035)", "TNF reporter robust z-score": 0.46}
